Experimental data: PubChem BioAssay AID1259259 (Sanger Institute, 2017)

- Assay: 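Synthetic lethal kinase partners of anchor drugs in colorectal cancer cells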 (primary screen)
- Cells: SW1463 human colorectal cancer cells
- Reagent: siRNA pool against human genes
- Challenge: DMSO vehicle, or one anchor drug: BYL719 at 1 µM, cetuximab at 5 µg/ml, or trametinib at 10 nM
- Measured: 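Viability relative to control pool 2 (non-targeting) averaged over replicates, robust z-score for knock-down with no drug, and for each anchor drug the mean synergy score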
- Direction: robust z-score, knock-down alone: higher = more viable cells after knock-down; viability, knock-down alone: higher = more viable cells
- Units: viability, knock-down alone in fraction of control
- Active means: 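Knock-down called essential when its robust z-score without drug falls below -3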
- Calls: active = essential: viability loss from knock-down alone; inactive = no change from knock-down alone
In all, the deposit lists 794 reagents; shown is a random part of them. Over the whole deposit, 9 (1.1%) got an active call. 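Calls rest on knock-down alone, not drug synergy; viability values seem capped at 1.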 A number with no mark means an inactive call. Further read-outs or replicates are left out here. Not given: the amount of reagent, the time to read-out.

PTEN (phosphatase and tensin homolog) scored robust z-score, knock-down alone -2.32; viability, knock-down alone 0.779.
TRIB1 (tribbles pseudokinase 1) scored robust z-score, knock-down alone 1.13; viability, knock-down alone 1.
For ANKK1 (ankyrin repeat and kinase domain containing 1), the entry reads robust z-score, knock-down alone 0.418; viability, knock-down alone 0.954.
For NME5 (NME/NM23 family member 5), the entry reads robust z-score, knock-down alone 0.91; viability, knock-down alone 0.986.
For NME7 (NME/NM23 family member 7), the values are robust z-score, knock-down alone 1.13; viability, knock-down alone 1.
Against NTN4 (netrin 4), the entry reads robust z-score, knock-down alone -0.179; viability, knock-down alone 0.916.
PAK3 (p21 (RAC1) activated kinase 3) showed robust z-score, knock-down alone 1.13; viability, knock-down alone 1.
After knock-down of MAP3K9 (mitogen-activated protein kinase kinase kinase 9) the results were robust z-score, knock-down alone 0.274; viability, knock-down alone 0.945.
DGKB (diacylglycerol kinase beta) showed robust z-score, knock-down alone -0.245; viability, knock-down alone 0.912.
ARAF (A-Raf proto-oncogene, serine/threonine kinase) scored robust z-score, knock-down alone 0.294; viability, knock-down alone 0.947.
After knock-down of PRKACB (protein kinase cAMP-activated catalytic subunit beta) the results were robust z-score, knock-down alone 0.863; viability, knock-down alone 0.983.
Depletion of NR2F2 (nuclear receptor subfamily 2 group F member 2) gave: robust z-score, knock-down alone 1.13; viability, knock-down alone 1.
After knock-down of CAMK2D (calcium/calmodulin dependent protein kinase II delta), the record shows robust z-score, knock-down alone 0.778; viability, knock-down alone 0.978.
MAP4K2 (mitogen-activated protein kinase kinase kinase kinase 2) gave robust z-score, knock-down alone 1.13; viability, knock-down alone 1.
Against CKS1B (CDC28 protein kinase regulatory subunit 1B), the entry reads robust z-score, knock-down alone -0.102; viability, knock-down alone 0.921.
With knock-down of WNK2 (WNK lysine deficient protein kinase 2), the screen gave robust z-score, knock-down alone 1.13; viability, knock-down alone 1.
Against AK4 (adenylate kinase 4) the deposit lists robust z-score, knock-down alone 0.386; viability, knock-down alone 0.952.
Against AXIN2 (axin 2), the entry reads robust z-score, knock-down alone 1.13; viability, knock-down alone 1.
With knock-down of PRKACA (protein kinase cAMP-activated catalytic subunit alpha), the record shows robust z-score, knock-down alone 0.557; viability, knock-down alone 0.963.
After knock-down of CSNK1G1 (casein kinase 1 gamma 1), the screen gave robust z-score, knock-down alone 1.13; viability, knock-down alone 1.
For FGR (FGR proto-oncogene, Src family tyrosine kinase), the entry reads robust z-score, knock-down alone 0.701; viability, knock-down alone 0.973.
For PDK4 (pyruvate dehydrogenase kinase 4), the values are robust z-score, knock-down alone -0.107; viability, knock-down alone 0.921.
Depletion of ETNK1 (ethanolamine kinase 1) resulted in: robust z-score, knock-down alone 0.00349; viability, knock-down alone 0.928.
For CSNK1G2 (casein kinase 1 gamma 2), the values are robust z-score, knock-down alone 0.237; viability, knock-down alone 0.943.

An excerpt from above, reduced to “viability, knock-down alone”:
TRIB1 (tribbles pseudokinase 1): 1
ANKK1 (ankyrin repeat and kinase domain containing 1): 0.954
NME5 (NME/NM23 family member 5): 0.986

Further results follow.
STK26 (serine/threonine kinase 26) gave robust z-score, knock-down alone 0.124; viability, knock-down alone 0.936.
Against SRC (SRC proto-oncogene, non-receptor tyrosine kinase), the entry reads robust z-score, knock-down alone -1.25; viability, knock-down alone 0.848.
HK2 (hexokinase 2) showed robust z-score, knock-down alone -0.93; viability, knock-down alone 0.868.
Against DGKQ (diacylglycerol kinase theta), the entry reads robust z-score, knock-down alone -0.409; viability, knock-down alone 0.901.
With knock-down of BMPR1B (bone morphogenetic protein receptor type 1B), the record shows robust z-score, knock-down alone 0.61; viability, knock-down alone 0.967.
After knock-down of CDC73 (cell division cycle 73), the record shows robust z-score, knock-down alone -1.47; viability, knock-down alone 0.833.
Against PTPRU (protein tyrosine phosphatase receptor type U), the entry reads robust z-score, knock-down alone -2.71; viability, knock-down alone 0.753.
EPHB3 (EPH receptor B3) showed robust z-score, knock-down alone -0.978; viability, knock-down alone 0.865.
With knock-down of LIMK2 (LIM domain kinase 2), the record shows robust z-score, knock-down alone 1.13; viability, knock-down alone 1.
Against ROCK1 (Rho associated coiled-coil containing protein kinase 1), the entry reads robust z-score, knock-down alone 0.304; viability, knock-down alone 0.947.
After knock-down of IKBKG the results were robust z-score, knock-down alone 0.113; viability, knock-down alone 0.935.
After knock-down of PDIK1L (PDLIM1 interacting kinase 1 like), the record shows robust z-score, knock-down alone -0.634; viability, knock-down alone 0.887.
